Experimental data as given in article doi:10.1101/2022.02.23.481653.
Results are given in words; binding and its absence hold for the method and conditions named. For some assays here: Binding seen in cells or lysates may run through a third protein. Some entries that bind do so weakly or less than the wild type. Tags and fused reporters may be left off the sequences shown.

T1: recombinant human septin hexamers with SEPT2NCmut-msfGFP (SEPT2 F20D, V27D) (human), Q15019
T1 chain 1: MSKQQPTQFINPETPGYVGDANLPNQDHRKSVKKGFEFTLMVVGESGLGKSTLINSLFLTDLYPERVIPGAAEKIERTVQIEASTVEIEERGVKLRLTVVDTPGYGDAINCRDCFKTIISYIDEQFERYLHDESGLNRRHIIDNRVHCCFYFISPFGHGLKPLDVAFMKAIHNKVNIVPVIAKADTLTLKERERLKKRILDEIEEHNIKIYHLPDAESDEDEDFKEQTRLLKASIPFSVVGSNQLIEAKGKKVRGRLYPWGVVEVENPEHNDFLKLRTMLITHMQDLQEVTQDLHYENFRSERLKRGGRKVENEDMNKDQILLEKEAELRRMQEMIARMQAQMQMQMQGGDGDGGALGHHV
T1 chain 2: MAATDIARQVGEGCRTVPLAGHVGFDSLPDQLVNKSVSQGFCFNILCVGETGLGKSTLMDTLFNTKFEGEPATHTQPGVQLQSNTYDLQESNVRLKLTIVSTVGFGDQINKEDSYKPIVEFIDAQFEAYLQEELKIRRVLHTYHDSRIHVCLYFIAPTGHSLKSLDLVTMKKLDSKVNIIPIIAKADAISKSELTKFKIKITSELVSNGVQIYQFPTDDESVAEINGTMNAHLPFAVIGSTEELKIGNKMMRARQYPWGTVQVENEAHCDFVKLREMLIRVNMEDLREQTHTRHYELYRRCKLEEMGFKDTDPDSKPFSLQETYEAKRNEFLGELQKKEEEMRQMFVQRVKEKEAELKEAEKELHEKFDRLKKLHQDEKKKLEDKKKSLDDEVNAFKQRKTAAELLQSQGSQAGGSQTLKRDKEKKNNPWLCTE
T1 chain 3: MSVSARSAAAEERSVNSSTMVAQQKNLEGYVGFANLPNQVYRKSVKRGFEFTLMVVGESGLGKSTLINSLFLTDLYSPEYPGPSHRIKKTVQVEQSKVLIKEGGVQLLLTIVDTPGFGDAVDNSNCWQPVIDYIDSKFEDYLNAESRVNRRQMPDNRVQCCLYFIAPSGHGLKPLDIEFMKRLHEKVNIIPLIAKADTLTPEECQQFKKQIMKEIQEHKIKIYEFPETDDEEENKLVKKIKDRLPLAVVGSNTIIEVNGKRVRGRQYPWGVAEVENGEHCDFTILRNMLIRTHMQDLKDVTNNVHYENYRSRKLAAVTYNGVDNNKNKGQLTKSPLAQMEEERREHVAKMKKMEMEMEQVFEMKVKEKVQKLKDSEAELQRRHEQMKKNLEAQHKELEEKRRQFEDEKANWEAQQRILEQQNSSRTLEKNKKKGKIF

T2: SEPT9_i1-β10 and SEPT9_i1-β11 (wild-type SEPT9 isoform 1 fused to GFP strand β10 or β11) (human), Q9UHD8
T2 chain: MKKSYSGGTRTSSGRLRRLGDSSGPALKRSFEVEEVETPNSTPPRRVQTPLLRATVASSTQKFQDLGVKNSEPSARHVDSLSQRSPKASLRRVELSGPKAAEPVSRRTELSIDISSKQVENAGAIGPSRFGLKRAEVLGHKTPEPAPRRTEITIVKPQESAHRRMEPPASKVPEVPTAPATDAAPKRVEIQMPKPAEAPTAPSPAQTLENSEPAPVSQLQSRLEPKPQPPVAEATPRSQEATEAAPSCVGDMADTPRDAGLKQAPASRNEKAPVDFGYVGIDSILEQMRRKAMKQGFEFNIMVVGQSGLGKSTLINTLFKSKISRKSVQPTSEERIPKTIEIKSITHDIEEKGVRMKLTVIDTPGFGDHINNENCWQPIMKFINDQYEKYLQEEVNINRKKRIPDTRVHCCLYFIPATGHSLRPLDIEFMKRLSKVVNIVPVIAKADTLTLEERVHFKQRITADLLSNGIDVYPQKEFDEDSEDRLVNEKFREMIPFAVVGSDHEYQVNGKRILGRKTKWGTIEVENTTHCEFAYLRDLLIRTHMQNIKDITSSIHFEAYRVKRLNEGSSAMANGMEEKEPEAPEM

B1: recombinant human septin hexamers with SEPT2NCmut-msfGFP (SEPT2 F20D, V27D), Q15019;Q14141;Q16181 (complex)
chain 1: T1 chain 1
chain 2: T1 chain 2
chain 3: T1 chain 3
B2: SEPT9_i1-β10 and SEPT9_i1-β11 (wild-type SEPT9 isoform 1 fused to GFP strand β10 or β11), Q9UHD8-1 1-586 (protein)
chain: T2 chain

Tests used:
[1] = target: T1, recombinant human septin hexamers with …; experiment: fluorescence microscopy of reconstituted septin filaments; settings: remark: other sources report otherwise
[2] = target: T2, SEPT9_i1-β10 and SEPT9_i1-β11 …; experiment: split reporter; settings: remark: other sources report otherwise

Row | Binder | binding [1] | binding [2]
1 | B1 | no binding | 
2 | B2 |  | binds
